The values below come from publication doi:10.1101/2025.08.18.670902.

By UniProt entry, the sequences of proteins in these tests, tags left out. Residues count along the entry.
UniProt Q14145, residues 321-611: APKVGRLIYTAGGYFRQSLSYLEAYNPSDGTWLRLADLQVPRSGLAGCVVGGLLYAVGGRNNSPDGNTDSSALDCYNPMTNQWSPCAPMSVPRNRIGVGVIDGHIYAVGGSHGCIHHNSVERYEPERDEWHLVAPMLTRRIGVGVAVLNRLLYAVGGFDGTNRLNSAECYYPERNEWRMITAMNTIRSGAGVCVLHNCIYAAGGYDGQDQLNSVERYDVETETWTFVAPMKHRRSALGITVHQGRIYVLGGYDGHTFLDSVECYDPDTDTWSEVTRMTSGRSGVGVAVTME

Results are given in words; binding and its absence hold for the method and conditions named. Some binding calls cover weakened binding; strength is not graded here.

For this experiment, the target named is Kelch fragment (Ala321-Glu611 of human KEAP1 protein) (human) (UniProt Q14145). Description: SPR.

MDLIDILWRQDIDLGVSREVFDFS [DLG^WT peptide (NRF2 residues 17-40)]: the binding entry is reported as “binds”.
